From article PMC8760648
No constants are given. Whether binding was seen depends on the method and setting. In cells and extracts the contact can be indirect. Some binding calls cover weakened binding; strength is not graded here.

Amino acid sequences for entries named in this document (tags omitted).
UniProt Q9UKV8: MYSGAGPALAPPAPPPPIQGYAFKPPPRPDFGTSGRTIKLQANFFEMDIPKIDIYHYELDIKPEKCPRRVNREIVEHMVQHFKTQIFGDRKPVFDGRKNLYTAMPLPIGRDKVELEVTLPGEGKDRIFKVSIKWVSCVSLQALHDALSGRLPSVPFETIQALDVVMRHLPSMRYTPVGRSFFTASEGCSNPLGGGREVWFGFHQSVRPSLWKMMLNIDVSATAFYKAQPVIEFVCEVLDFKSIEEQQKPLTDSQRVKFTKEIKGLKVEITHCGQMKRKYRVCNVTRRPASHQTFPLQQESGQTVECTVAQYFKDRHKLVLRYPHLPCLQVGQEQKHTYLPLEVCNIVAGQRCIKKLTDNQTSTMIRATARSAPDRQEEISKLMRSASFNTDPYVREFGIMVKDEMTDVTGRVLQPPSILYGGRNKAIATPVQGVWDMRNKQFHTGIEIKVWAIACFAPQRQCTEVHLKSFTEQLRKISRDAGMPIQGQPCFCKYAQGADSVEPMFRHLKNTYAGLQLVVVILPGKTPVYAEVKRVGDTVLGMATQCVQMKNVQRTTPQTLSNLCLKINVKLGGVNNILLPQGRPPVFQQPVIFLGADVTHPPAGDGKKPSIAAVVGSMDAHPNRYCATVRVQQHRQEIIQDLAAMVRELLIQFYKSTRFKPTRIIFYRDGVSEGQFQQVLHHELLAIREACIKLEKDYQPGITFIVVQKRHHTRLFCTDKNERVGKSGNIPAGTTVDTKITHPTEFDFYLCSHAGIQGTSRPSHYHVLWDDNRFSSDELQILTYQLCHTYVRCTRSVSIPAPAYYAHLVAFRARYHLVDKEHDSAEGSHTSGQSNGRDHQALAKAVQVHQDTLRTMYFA

Target: Argonaute 2 (Ago2) (human (endogenous in glioma cells)) (UniProt Q9UKV8)
Experiment: co-IP; IP with either IgG (control), AGO2, SART3 or PRPF8 antibodies from glioma cells, followed by Western blotting; endogenous proteins

binding: binds
B1: SART3, spliceosome-associated factor 3 (protein, UniProt Q15020 1-963)
chain: MATAAETSASEPEAESKAGPKADGEEDEVKAARTRRKVLSRAVAAATYKTMGPAWDQQEEGVSESDGDEYAMASSAESSPGEYEWEYDEEEEKNQLEIERLEEQLSINVYDYNCHVDLIRLLRLEGELTKVRMARQKMSEIFPLTEELWLEWLHDEISMAQDGLDREHVYDLFEKAVKDYICPNIWLEYGQYSVGGIGQKGGLEKVRSVFERALSSVGLHMTKGLALWEAYREFESAIVEAARLEKVHSLFRRQLAIPLYDMEATFAEYEEWSEDPIPESVIQNYNKALQQLEKYKPYEEALLQAEAPRLAEYQAYIDFEMKIGDPARIQLIFERALVENCLVPDLWIRYSQYLDRQLKVKDLVLSVHNRAIRNCPWTVALWSRYLLAMERHGVDHQVISVTFEKALNAGFIQATDYVEIWQAYLDYLRRRVDFKQDSSKELEELRAAFTRALEYLKQEVEERFNESGDPSCVIMQNWARIEARLCNNMQKARELWDSIMTRGNAKYANMWLEYYNLERAHGDTQHCRKALHRAVQCTSDYPEHVCEVLLTMERTEGSLEDWDIAVQKTETRLARVNEQRMKAAEKEAALVQQEEEKAEQRKRARAEKKALKKKKKIRGPEKRGADEDDEKEWGDDEEEQPSKRRRVENSIPAAGETQNVEVAAGPAGKCAAVDVEPPSKQKEKAASLKRDMPKVLHDSSKDSITVFVSNLPYSMQEPDTKLRPLFEACGEVVQIRPIFSNRGDFRGYCYVEFKEEKSALQALEMDRKSVEGRPMFVSPCVDKSKNPDFKVFRYSTSLEKHKLFISGLPFSCTKEELEEICKAHGTVKDLRLVTNRAGKPKGLAYVEYENESQASQAVMKMDGMTIKENIIKVAISNPPQRKVPEKPETRKAPGGPMLLPQTYGARGKGRTQLSLLPRALQRPSAAAPQAENGPAAAPAVAAPAATEAPKMSNADFAKLFLRK
